According to patent EP2835640A1, “Method for predicting the skin sensitizing activity of a compound” (Academisch Ziekenhuis Leiden HODN Leids Universitair …, priority 2013, dated 2015):
Entries after “also recorded” stand apart in the source; their conditions may differ. At least one compound was matched to its structure with a doubt left.

Legend:
[1] = system: Nrf2; test: Nuclear fractionation and Western blot, NEMs; format: cell-based, human
[2] = system: Nrf2; test: Total lysate Western blot, monolayer N/TERT; format: cell-based, human; conditions: compared to SDS, time dependent
[3] = system: Nrf2; test: Nuclear fractionation and Western blot, N/TERT monolayer cultures; format: cell-based, human
Text: (§1) Nuclear fractions of monolayer cultures and reconstructed epidermis were isolate using a Nuclear extract kit (Active motif, Carlsbad, CA) according to the manufacturer's protocol. Nuclear fractions were subjected to Western blot analysis.
(§2) Monolayer cells were lysed in M-Per buffer (Thermo Scientific, Rockford, USA), reconstructed epidermis was cut in pieces and lysed in T-Per lysis buffer (Thermo Scientific, Rockford, USA) both supplemented with protease inhibitor cocktail EDTA-free and HALTTM phosphatase inhibitors (Thermo Scientific). Cell lysates were measured using the BCATM protein assay kit (Thermo Scientific). Equal amounts of proteins were separated by SDS-page. Proteins were transferred onto PVDF- transfer membranes (Thermo Scientific). […] After four times washing with PBST, proteins were detected by enhanced chemi-luminescence (Super signal West femto (Pierce Thermo Scientific, Rockford, USA) and visualized by exposure to X-ray film (Fujifilm Europe GmbH, Düsseldorf, Germany).
(§3) Next we investigated whether Nrf2 expression could be stabilized by inhibiting the proteasome that is responsible for a constitutive degradation of Nrf2. […] Although the Nrf2 translocation was clearly visible, we used a second approach enabling quantification of the amount of translocated Nrf2. […]

[4] = system: Nrf2 dependent genes; test: Quantitative PCR of gene expression, NEMs; format: cell-based, human; conditions: 4 h, mRNA
Procedure: Medium was refreshed every 2 days.
Total RNA was prepared using RNeasy mini kit (Qiagen) according to the manufacturer's protocol. RNA was quantified using a Nanodrop ND-1000 spectrophotometer. First- strand cDNA synthesis was derived from 1 ug of total RNA using the iscript cDNA synthesis kit (Biorad) according to the manufacturer's protocol. Primers were tested in normal KC cDNA. Stability of reference genes was analyzed with the GeNorm method (Vandesompele et al., 2002). Expression analysis was performed with the BioRad software (iQ5) and was based on the delta delta Ct method with the reference genes that were most stably expressed according to the GeNorm analysis.
Expression levels of the following genes were measured: HMOX-1 (Hemeoxygenase-1), GCLM (Glutamate-cysteine ligase modifier subunit), TXNRD1 (Thioredoxin reductase 1), OSGIN-1 (oxidative stress induced growth inhibitor 1), B2M (Beta-2 microglobulin), GUSB (Glucuronidase beta) and TBP (TATA binding protein). Quantitative real-time PCR was determined by using the following primer sets: • 5'-[…]-'3 (HMOX-1), • 5'-[…]-'3 GCLM), • 5'-[…]-'3 (TXNRD1), • 5'- TGCTGCAGAGGAAGCTCAC-'3 (OSGIN1), • 5'-[…]-'3 (B2M), • 5'-[…]-'3 (GUSB), • 5'-[…]-'3 (TBP).
Real-Time PCRs were performed in 10 µl reaction volumes using the MylQ system and SYBR Green PCR Master- mix (Biorad) according to the manufacturer's protocol. […]

[5] = system: Nrf2; test: Total lysate Western blot, LEMs; format: cell-based, human; conditions: time dependent
[6] = system: Nrf2; test: Total lysate Western blot, monolayer primary keratinocytes; format: cell-based, human; conditions: compared to SDS, time dependent
[7] = system: Nrf2; test: Nrf2 nuclear translocation by immunofluorescence, monolayer keratinocytes; format: cell-based, human; conditions: 1 or 2 h, Rhodamine labelled Nrf2, compared to SDS
[8] = system: Nrf2; test: Total lysate Western blot, NEMs; format: cell-based, human; conditions: time dependent
[9] = system: Nrf2; test: Nuclear fractionation and Western blot, LEMs; format: cell-based, human
[10] = system: Nrf2; test: Nrf2 nuclear translocation by immunohistochemical analysis, NEMs; format: cell-based, human; conditions: NEMs 12 days air-exposed, 4 h treatment
[11] = system: Nrf2; test: Nuclear fractionation and Western blot, monolayer primary keratinocytes; format: cell-based, human
Text: as §1, §2, §3

[12] = system: Nrf2 dependent genes; test: Quantitative PCR of gene expression, ex-vivo human skin (epidermal sheets); format: cell-based; conditions: 4 h

SMILES: O=[N+]([O-])c1ccc(Cl)c([N+](=O)[O-])c1 [DNCB, 2,4-dinitrochlorobenzene]
- Nrf2 protein levels in nuclear lysates [1]: Enhanced levels of Nrf2; also recorded: elevated levels of Nrf2
- Nrf2 protein levels in total lysates [2]: Enhanced levels of Nrf2; also recorded: Nrf2 levels are induced
- Nrf2 protein levels in nuclear lysates [3]: Enhanced levels of Nrf2; also recorded: elevated levels of Nrf2
- Expression of HMOX-1 [4]: neither observe any significant up regulation
- Nrf2 protein levels in total lysates [5]: Enhanced levels of Nrf2; also recorded: increased levels of Nrf2
- Nrf2 protein levels in total lysates [6]: Enhanced levels of Nrf2; also recorded: Nrf2 levels are induced
- Nrf2 nuclear translocation [7]: Nuclear translocation of Nrf2 was clearly visible; also recorded: a substantial amount of Rhodamine labelled Nrf2 protein was translocated to the nucleus
- Nrf2 protein levels in total lysates [8]: Enhanced levels of Nrf2; also recorded: increased levels of Nrf2
- Nrf2 protein levels in nuclear lysates [9]: Enhanced levels of Nrf2; also recorded: elevated levels of Nrf2
- Nrf2 in the nuclei [10]: translocated to the nucleus; also recorded: higher levels of Nrf2 in the nuclei
- Nrf2 protein levels in nuclear lysates [11]: Enhanced levels of Nrf2; also recorded: elevated levels of Nrf2
- HMOX-1 expression [12]: neither observe any significant up regulation; also recorded: not upregulated
- mRNA expression of GCLM [12]: elevated mRNA expression
- mRNA expression of OSGIN-1 [12]: elevated mRNA expression
- mRNA expression of TXRND-1 [12]: elevated mRNA expression
